Article PMC8350011, “Interactions between semaphorins and plexin–neuropilin receptor complexes in the membranes of live cells” (The Journal of Biological Chemistry, 2021)
Results are given in words; binding and its absence hold for the method and conditions named. Some entries that bind do so weakly or less than the wild type.

Sequences of proteins named here, by UniProt entry; tags and fusion partners are left off. Residues count along the entry.
UniProt Q9HCM2, residues 24-1894: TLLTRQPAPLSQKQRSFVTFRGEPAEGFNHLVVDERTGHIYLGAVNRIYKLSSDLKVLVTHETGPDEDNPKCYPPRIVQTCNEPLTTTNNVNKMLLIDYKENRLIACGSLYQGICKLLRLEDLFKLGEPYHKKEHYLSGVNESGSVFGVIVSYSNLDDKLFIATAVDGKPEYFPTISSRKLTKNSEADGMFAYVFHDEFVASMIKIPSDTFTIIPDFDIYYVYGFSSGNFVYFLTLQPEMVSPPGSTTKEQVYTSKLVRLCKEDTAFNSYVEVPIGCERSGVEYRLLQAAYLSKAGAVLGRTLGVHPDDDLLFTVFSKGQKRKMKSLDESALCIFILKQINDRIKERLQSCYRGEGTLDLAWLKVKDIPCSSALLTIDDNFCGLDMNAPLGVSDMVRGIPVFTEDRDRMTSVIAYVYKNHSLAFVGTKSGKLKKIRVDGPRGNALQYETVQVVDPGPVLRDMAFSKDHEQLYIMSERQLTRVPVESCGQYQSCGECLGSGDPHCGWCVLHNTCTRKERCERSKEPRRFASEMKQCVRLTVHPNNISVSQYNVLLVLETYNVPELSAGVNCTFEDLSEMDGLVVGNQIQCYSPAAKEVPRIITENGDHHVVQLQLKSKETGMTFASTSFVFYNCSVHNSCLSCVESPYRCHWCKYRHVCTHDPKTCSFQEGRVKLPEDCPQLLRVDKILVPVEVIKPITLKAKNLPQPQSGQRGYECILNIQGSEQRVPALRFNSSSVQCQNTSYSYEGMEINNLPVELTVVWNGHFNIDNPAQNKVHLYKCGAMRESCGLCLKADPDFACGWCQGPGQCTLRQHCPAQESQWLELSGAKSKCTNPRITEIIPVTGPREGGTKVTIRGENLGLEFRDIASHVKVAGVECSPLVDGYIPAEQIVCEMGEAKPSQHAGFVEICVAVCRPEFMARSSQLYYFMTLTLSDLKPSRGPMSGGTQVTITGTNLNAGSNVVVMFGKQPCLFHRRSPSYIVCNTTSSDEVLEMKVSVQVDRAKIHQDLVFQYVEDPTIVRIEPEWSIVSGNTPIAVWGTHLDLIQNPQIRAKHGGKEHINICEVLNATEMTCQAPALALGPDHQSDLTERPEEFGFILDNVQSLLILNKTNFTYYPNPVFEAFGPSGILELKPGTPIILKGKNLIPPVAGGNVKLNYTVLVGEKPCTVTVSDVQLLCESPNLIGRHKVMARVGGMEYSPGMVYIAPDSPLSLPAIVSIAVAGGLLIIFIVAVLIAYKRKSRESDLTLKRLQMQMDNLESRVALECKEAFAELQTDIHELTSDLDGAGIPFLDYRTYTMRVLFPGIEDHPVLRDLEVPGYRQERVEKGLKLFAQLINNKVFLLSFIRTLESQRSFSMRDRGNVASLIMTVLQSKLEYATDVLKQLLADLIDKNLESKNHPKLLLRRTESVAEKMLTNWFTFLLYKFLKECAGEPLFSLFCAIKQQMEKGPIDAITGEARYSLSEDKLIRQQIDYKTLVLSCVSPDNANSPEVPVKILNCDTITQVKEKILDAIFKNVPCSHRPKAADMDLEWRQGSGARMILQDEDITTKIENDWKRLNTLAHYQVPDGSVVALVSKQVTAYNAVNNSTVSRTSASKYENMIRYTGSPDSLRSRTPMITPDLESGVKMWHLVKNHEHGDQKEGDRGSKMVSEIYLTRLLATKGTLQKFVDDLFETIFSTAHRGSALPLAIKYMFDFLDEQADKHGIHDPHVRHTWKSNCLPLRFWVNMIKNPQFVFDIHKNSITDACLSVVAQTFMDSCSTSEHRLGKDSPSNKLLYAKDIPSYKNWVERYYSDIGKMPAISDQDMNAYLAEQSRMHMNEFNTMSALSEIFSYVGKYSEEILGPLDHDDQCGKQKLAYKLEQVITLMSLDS

Legend:
[1] = molecular target: T1, plexin A4 (human, UniProt Q9HCM2 24-1894); assay: PIE-FCCS (pulsed-interleaved excitation fluorescence cross-correlation spectroscopy); single live Cos-7 cells co-expressing eGFP and mCherry fusions, with 500 ng/ml recombinant human semaphorin 3A in imaging media, data taken 10 to 70 min after addition
T1 construct: Two constructs (eGFP and mCherry fusions); The N1 vectors probably put the fluorescent protein at the C-terminus; also called plexin A4-eGFP; plexin A4-mCh; source: Cos-7, transiently transfected, in the membrane of live cells

[2] = molecular target: T1, plexin A4; assay: PIE-FCCS (pulsed-interleaved excitation fluorescence cross-correlation spectroscopy); single live Cos-7 cells co-expressing eGFP and mCherry fusions, with 500 ng/ml recombinant human semaphorin 3C in imaging media, data taken 10 to 70 min after addition
[3] = molecular target: plexin A2 (human) (UniProt O75051); assay: PIE-FCCS (pulsed-interleaved excitation fluorescence cross-correlation spectroscopy); single live Cos-7 cells co-expressing eGFP and mCherry fusions, with 500 ng/ml recombinant human semaphorin 3A in imaging media, data taken 10 to 70 min after addition
[4] = molecular target: plexin A2 (human) (UniProt O75051); assay: PIE-FCCS (pulsed-interleaved excitation fluorescence cross-correlation spectroscopy); single live Cos-7 cells co-expressing eGFP and mCherry fusions, with 500 ng/ml recombinant human semaphorin 3C in imaging media, data taken 10 to 70 min after addition

binding [1]	binding [2]	binding [3]	binding [4]	Molecule
binds	binds			plexin A4 (from UniProt Q9HCM2 24-1894) (receptor)
	binds	binds	binds	plexin A2 (receptor, human, UniProt O75051 35-1894, looked up, Two constructs (pEGFP-N1 and pmCh-N1, EcoR1 and Kpn1 sites); the N1 vectors probably put the fluorescent protein at the C-terminus; also called plexin A2-eGFP; plexin A2-mCh; source: Cos-7, transiently transfected, in the membrane of live cells) MPQFSTFHSENRDWTFNHLTVHQGTGAVYVGAINRVYKLTGNLTIQVAHKTGPEEDNKSCYPPLIVQPCSEVLTLTNNVNKLLIIDYSENRLLACGSLYQGVCKLLRLDDLFILVEPSHKKEHYLSSVNKTGTMYGVIVRSEGEDGKLFIGTAVDGKQDYFPTLSSRKLPRDPESSAMLDYELHSDFVSSLIKIPSDTLALVSHFDIFYIYGFASGGFVYFLTVQPETPEGVAINSAGDLFYTSRIVRLCKDDPKFHSYVSLPFGCTRAGVEYRLLQAAYLAKPGDSLAQAFNITSQDDVLFAIFSKGQKQYHHPPDDSALCAFPIRAINLQIKERLQSCYQGEGNLELNWLLGKDVQCTKAPVPIDDNFCGLDINQPLGGSTPVEGLTLYTTSRDRMTSVASYVYNGYSVVFVGTKSGKLKKIRADGPPHGGVQYEMVSVLKDGSPILRDMAFSIDQRYLYVMSERQVTRVPVESCEQYTTCGECLSSGDPHCGWCALHNMCSRRDKCQQAWEPNRFAASISQCVSLAVHPSSISVSEHSRLLSLVVSDAPDLSAGIACAFGNLTEVEGQVSGSQVICISPGPKDVPVIPLDQDWFGLELQLRSKETGKIFVSTEFKFYNCSAHQLCLSCVNSAFRCHWCKYRNLCTHDPTTCSFQEGRINISEDCPQLVPTEEILIPVGEVKPITLKARNLPQPQSGQRGYECVLNIQGAIHRVPALRFNSSSVQCQNSSYQYDGMDISNLAVDFAVVWNGNFIIDNPQDLKVHLYKCAAQRESCGLCLKADRKFECGWCSGERRCTLHQHCTSPSSPWLDWSSHNVKCSNPQITEILTVSGPPEGGTRVTIHGVNLGLDFSEIAHHVQVAGVPCTPLPGEYIIAEQIVCEMGHALVGTTSGPVRLCIGECKPEFMTKSHQQYTFVNPSVLSLNPIRGPESGGTMVTITGHYLGAGSSVAVYLGNQTCEFYGRSMSEIVCVSPPSSNGLGPVPVSVSVDRAHVDSNLQFEYIDDPRVQRIEPEWSIASGHTPLTITGFNLDVIQEPRIRVKFNGKESVNVCKVVNTTTLTCLAPSLTTDYRPGLDTVERPDEFGFVFNNVQSLLIYNDTKFIYYPNPTFELLSPTGVLDQKPGSPIILKGKNLCPPASGGAKLNYTVLIGETPCAVTVSETQLLCEPPNLTGQHKVMVHVGGMVFSPGSVSVISDSLLTLPAIVSIAAGGSLLLIIVIIVLIAYKRKSRENDLTLKRLQMQMDNLESRVALECKEAFAELQTDINELTSDLDRSGIPYLDYRTYAMRVLFPGIEDHPVLRELEVQGNGQQHVEKALKLFAQLINNKVFLLTFIRTLELQRSFSMRDRGNVASLIMTGLQGRLEYATDVLKQLLSDLIDKNLENKNHPKLLLRRTESVAEKMLTNWFAFLLHKFLKECAGEPLFMLYCAIKQQMEKGPIDAITGEARYSLSEDKLIRQQIEYKTLILNCVNPDNENSPEIPVKVLNCDTITQVKEKILDAVYKNVPYSQRPRAVDMDLEWRQGRIARVVLQDEDITTKIEGDWKRLNTLMHYQVSDRSVVALVPKQTSSYNIPASASISRTSISRYDSSFRYTGSPDSLRSRAPMITPDLESGVKVWHLVKNHDHGDQKEGDRGSKMVSEIYLTRLLATKGTLQKFVDDLFETLFSTVHRGSALPLAIKYMFDFLDEQADRHSIHDTDVRHTWKSNCLPLRFWVNVIKNPQFVFDIHKGSITDACLSVVAQTFMDSCSTSEHRLGKDSPSNKLLYAKDIPSYKSWVERYYADIAKLPAISDQDMNAYLAEQSRLHAVEFNMLSALNEIYSYVSKYSEELIGALEQDEQARRQRLAYKVEQLINAMSIES
